Laboratory results as given in PMC7897482.
Results are given in words; binding and its absence hold for the method and conditions named. Binding seen in cells or lysates may run through a third protein. These calls come from enrichment with a bait or labelling near it, and not all partners need be listed. Where a sequence is shown, tags or fusion partners need not be part of it.

Chains of the proteins cited; added tags and fusions are not shown.
UniProt Q9VUV9: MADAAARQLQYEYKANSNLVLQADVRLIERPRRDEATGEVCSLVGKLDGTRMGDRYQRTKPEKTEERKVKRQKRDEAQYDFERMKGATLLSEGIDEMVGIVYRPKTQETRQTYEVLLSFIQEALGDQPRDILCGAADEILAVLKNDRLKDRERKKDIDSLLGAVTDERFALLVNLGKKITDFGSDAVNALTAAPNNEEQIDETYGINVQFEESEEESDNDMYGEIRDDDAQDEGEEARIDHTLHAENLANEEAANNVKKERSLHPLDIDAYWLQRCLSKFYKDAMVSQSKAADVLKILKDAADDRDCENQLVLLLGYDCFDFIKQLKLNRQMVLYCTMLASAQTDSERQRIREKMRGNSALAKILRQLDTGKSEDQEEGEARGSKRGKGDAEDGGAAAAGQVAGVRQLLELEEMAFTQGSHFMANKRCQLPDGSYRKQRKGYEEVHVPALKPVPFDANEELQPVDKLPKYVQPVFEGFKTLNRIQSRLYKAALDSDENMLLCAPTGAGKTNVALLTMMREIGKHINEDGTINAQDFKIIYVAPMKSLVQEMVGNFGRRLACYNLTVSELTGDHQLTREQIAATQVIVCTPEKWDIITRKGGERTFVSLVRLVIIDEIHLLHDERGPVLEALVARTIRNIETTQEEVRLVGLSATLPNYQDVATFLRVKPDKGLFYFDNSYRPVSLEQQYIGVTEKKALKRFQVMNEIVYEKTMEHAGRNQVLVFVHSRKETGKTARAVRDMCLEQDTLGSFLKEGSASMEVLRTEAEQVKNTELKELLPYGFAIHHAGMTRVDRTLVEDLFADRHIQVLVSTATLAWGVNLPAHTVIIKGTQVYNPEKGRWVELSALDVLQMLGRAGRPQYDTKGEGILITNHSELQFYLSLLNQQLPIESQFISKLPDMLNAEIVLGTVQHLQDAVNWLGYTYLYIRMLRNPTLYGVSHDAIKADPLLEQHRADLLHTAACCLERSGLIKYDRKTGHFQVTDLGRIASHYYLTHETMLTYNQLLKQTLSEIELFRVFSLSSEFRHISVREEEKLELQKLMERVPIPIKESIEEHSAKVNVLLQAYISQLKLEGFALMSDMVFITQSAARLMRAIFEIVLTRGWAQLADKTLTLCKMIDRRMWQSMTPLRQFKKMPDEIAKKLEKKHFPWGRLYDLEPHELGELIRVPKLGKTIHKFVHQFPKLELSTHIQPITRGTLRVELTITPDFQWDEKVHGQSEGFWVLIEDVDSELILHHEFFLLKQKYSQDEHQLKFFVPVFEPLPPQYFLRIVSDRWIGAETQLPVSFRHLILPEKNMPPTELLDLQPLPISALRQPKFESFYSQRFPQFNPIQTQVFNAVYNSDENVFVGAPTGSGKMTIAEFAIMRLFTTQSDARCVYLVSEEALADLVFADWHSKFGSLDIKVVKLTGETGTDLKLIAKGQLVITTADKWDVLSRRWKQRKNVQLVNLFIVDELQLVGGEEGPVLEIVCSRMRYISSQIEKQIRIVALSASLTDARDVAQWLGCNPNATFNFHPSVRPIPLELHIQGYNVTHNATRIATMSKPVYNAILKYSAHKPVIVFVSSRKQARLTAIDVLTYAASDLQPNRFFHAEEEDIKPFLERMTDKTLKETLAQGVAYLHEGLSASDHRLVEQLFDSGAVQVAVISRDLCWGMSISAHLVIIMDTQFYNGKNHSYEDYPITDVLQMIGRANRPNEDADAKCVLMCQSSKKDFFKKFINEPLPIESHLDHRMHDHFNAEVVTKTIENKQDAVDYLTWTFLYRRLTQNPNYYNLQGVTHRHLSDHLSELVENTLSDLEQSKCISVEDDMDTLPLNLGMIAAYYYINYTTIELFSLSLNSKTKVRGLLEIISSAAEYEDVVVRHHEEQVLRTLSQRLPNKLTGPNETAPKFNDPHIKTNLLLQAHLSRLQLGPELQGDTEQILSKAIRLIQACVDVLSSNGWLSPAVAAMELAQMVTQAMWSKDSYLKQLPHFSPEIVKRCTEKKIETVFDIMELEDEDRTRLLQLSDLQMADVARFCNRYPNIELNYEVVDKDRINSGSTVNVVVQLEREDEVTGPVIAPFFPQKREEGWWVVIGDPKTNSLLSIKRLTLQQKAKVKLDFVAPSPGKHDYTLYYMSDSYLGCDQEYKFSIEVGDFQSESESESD
UniProt Q9VH07: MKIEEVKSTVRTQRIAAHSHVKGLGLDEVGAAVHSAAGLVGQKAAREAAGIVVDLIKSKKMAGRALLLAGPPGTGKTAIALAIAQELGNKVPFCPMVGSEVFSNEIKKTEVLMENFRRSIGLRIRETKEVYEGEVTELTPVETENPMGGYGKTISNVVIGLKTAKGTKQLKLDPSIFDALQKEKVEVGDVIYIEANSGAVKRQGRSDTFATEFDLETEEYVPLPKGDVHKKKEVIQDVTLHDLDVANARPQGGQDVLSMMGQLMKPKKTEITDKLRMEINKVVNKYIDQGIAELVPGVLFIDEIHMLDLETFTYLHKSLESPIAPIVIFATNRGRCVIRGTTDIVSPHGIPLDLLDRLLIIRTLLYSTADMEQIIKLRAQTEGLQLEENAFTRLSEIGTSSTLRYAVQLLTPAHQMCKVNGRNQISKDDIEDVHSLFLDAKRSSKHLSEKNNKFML
UniProt Q9VU02: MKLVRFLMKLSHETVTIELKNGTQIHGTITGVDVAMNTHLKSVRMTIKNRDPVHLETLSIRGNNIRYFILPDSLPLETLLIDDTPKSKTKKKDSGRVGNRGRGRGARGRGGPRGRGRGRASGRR

Tests used:
[1] = biological target: T1, SmD3::HA (transgenic UAS-SmD3::3xHA) (Drosophila melanogaster) (UniProt O44437); assay: affinity purification with mass spectrometry; SmD3::HA precipitated with an HA-specific antibody from lysates of wing imaginal discs (nub>mRFP, SmD3::HA), wild type or with ecd RNAi; LC-MS/MS; control: nub>mRFP discs
T1 sequence: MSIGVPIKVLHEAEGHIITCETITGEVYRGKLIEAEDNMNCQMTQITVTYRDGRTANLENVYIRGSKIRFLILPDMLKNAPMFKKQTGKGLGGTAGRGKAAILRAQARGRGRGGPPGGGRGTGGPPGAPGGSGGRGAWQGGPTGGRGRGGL

[2] = biological target: T2, Myc::Ecd^wt (Ecdysoneless, wild type) (Drosophila melanogaster) (UniProt Q9W032); assay: affinity purification with mass spectrometry; Myc::Ecd^wt or Myc::Ecd^Δ34 precipitated with an anti-Myc antibody from Drosophila S2 cell lysates; LC-MS/MS, four biological replicates; control: S2 cells not expressing Myc::Ecd^wt
T2 sequence: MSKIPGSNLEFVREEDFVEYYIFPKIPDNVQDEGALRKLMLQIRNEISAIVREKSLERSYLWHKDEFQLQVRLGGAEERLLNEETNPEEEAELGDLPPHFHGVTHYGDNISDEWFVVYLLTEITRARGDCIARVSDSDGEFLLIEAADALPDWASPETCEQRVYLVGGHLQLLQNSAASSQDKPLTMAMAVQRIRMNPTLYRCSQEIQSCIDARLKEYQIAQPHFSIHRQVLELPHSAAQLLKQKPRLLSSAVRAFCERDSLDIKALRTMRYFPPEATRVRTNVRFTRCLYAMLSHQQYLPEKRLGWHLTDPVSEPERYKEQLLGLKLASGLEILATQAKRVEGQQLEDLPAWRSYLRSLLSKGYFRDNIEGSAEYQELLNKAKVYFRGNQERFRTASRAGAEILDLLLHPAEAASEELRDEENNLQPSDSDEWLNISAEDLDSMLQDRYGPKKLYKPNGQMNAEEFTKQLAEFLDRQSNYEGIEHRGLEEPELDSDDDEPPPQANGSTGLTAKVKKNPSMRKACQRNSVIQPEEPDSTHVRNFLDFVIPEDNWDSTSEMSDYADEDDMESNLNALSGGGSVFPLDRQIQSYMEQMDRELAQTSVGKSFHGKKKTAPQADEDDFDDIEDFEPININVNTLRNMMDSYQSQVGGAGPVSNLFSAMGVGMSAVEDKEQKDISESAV

[3] = biological target: T3, Myc::Ecd^Δ34 (Drosophila melanogaster) (UniProt Q9W032); assay: as above
T3 sequence: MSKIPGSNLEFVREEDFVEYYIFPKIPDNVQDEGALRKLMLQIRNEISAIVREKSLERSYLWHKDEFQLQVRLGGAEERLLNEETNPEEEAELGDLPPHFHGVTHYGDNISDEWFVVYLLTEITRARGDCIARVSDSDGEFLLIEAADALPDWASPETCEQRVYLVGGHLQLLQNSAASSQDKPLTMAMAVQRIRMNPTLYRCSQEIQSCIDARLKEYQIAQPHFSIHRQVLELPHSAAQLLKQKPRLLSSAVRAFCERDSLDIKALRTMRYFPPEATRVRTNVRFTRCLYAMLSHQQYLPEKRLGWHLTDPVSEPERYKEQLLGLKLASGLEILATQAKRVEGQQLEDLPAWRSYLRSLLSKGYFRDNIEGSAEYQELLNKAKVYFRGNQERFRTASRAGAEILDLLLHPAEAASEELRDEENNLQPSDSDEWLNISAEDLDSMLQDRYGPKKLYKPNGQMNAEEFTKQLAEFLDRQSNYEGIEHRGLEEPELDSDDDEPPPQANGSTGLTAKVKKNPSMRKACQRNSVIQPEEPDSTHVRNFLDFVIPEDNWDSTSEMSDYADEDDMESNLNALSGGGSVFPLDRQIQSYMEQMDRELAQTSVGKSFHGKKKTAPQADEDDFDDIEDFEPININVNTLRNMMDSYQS

| binding [1] | binding [2] | binding [3] | Substance |
| --- | --- | --- | --- |
| binds | – | – | CG10333 (DDX23) (wing imaginal discs) (from UniProt Q9VJ74) |
| binds | – | – | I(3)72Ab (Brr2) (wing imaginal discs) (from UniProt Q9VUV9 1-2142) |
| binds | – | – | Snu114 (wing imaginal discs) (from UniProt Q9VAX8) |
| binds | – | – | endogenous Prp8 (wing imaginal discs) (from UniProt A1Z8U0 1-2396) |

Second part, the substance before the results:

| Substance | binding [1] | binding [2] | binding [3] |
| --- | --- | --- | --- |
| CG3436 (SNRNP40) (wing imaginal discs) | binds | – | – |
| Drosophila TSSC4 ortholog, encoded by CG6674 (S2 cells) | – | binds | binds |
| endogenous Pontin (S2 cells) (from UniProt Q9VH07 1-456) | – | binds | binds |
| endogenous Prp8 (S2 cells) (from UniProt A1Z8U0 1-2396) | – | binds | binds |
| endogenous SmD1 (S2 cells) (from UniProt Q9VU02 1-124) | – | binds | – |
